These are yes or no findings as the source states them, for the method shown. Binding calls can cover weak binding; strength is not graded here.
Target: Acar3 heavy chain (residues 1-272), construct for structural studies (great reed warbler (Acrocephalus arundinaceus))
Experiment: crystal structure

For MTMITPPTF [peptide 3 (…)], which binding is on record?
Its binding is “binds”.
